Results are given in words; binding and its absence hold for the method and conditions named. Binding calls can cover weak binding; strength is not graded here. For some assays here: In cells and extracts the contact can be indirect.
What was measured:
[1] = molecular target: T1, sNlpI (soluble NlpI without its lipoprotein signal peptide) (E. coli) (UniProt P0AFB1); experiment: crystal structure; sNlpI with Prc-K477A, complex purified by Superdex 200; 0.2 M ammonium citrate pH 7.4, 14% PEG3350, 16 °C; 2.30 Å; both purified
T1 sequence: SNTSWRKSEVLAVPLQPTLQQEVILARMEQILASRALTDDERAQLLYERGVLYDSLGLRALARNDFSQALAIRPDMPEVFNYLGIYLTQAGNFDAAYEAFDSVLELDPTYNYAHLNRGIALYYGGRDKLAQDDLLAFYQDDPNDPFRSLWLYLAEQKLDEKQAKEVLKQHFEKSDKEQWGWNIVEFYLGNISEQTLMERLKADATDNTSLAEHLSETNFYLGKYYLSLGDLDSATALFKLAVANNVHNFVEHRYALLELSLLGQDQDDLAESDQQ

[2] = molecular target: T1, sNlpI (soluble NlpI without its lipoprotein signal peptide) (E. coli); experiment: pull-down; Ni-NTA pull-down; cleared lysates of His6-tagged sNlpI (WT or mutants) mixed with lysate of untagged Prc-K477A; 50 mM Tris-HCl pH 8.0, 200 mM NaCl; read by SDS-PAGE

Row | Substance | binding [1] | binding [2]
1 | Prc-K477A (catalytically inactive, for crystallization) (E. coli) (enzyme) | binds | –
2 | Prc-K477A with no tag (E. coli) (enzyme) | – | binds

Source: PMC5686067
